Experimental data as given in patent publication US20260042827A1, “ANTI-WT1 ANTIGEN-BINDING PROTEINS AND USES THEREOF” (UNIVERSITY HEALTH NETWORK, priority 2022, published 2026).
Results are given in words; binding and its absence hold for the method and conditions named. Binding calls can cover weak binding; strength is not graded here.

Assays:
HLA-DP2 (human) [1] = assay: cell-based competitive binding assay (figure legend)
HLA-DP2 (human) [2] = assay: cell-based competitive binding assay on T2/DP2 cells, graded WT1328-348 against reference peptide Oxy271-287
HLA-DP2 (human) [3] = assay: cell-based competitive binding assay

binding (HLA-DP2 (human) [1]): binds
binding (HLA-DP2 (human) [2]): binds
binding (HLA-DP2 (human) [3]): binds
Binder: PGCNKRYFKLSHLQMHSRKHT [WT1328-348]
